Twelve targets from the supplement of paper PMC10849652 can be followed below.

The chains behind the UniProt entries cited, without tags or fusion partners. Where a name states a change or a piece, a line headed by the entry shows the natural chain unless it says otherwise.
UniProt P49888: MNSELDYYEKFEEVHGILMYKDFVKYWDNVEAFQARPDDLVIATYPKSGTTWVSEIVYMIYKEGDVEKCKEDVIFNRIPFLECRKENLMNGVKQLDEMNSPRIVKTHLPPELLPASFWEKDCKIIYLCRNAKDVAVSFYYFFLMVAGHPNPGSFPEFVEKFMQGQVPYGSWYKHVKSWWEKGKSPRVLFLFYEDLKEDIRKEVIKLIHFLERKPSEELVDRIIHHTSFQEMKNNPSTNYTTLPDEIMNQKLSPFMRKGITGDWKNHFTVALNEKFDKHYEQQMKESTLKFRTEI
UniProt P08842: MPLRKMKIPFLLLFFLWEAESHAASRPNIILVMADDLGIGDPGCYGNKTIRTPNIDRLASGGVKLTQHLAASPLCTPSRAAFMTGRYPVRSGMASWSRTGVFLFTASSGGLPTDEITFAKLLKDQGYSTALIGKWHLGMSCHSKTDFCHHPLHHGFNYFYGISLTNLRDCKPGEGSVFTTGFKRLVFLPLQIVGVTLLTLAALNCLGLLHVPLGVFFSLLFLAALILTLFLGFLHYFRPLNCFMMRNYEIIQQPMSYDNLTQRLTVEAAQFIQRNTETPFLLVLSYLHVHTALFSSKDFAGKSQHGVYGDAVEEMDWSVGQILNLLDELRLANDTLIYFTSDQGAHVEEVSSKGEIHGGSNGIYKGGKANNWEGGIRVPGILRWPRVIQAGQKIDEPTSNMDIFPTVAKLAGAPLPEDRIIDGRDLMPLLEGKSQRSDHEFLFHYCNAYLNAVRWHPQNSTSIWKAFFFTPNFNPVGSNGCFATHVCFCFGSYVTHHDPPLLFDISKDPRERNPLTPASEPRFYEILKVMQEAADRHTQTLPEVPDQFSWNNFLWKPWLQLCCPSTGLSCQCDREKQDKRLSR
UniProt Q9ULQ0: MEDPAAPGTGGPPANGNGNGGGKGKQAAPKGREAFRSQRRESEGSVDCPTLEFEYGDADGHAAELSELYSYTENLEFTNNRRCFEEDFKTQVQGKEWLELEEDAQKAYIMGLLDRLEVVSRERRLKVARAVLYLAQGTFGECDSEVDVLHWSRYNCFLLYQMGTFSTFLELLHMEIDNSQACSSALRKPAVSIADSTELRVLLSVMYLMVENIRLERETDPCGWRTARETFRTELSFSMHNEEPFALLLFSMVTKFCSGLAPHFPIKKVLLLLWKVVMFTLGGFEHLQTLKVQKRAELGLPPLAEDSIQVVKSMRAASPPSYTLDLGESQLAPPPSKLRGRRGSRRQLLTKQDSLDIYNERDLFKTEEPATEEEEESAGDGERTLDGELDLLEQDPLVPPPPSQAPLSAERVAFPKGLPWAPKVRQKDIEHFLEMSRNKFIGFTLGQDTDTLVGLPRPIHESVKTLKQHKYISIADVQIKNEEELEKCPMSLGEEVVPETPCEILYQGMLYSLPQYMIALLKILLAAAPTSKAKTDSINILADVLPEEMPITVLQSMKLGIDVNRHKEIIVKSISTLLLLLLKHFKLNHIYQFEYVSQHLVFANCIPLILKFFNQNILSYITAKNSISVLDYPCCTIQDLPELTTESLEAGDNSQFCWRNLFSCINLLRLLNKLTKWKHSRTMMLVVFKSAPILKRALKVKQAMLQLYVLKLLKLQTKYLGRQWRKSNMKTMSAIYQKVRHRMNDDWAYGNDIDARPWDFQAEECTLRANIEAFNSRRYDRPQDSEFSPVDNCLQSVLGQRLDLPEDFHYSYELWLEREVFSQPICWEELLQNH
UniProt O75529: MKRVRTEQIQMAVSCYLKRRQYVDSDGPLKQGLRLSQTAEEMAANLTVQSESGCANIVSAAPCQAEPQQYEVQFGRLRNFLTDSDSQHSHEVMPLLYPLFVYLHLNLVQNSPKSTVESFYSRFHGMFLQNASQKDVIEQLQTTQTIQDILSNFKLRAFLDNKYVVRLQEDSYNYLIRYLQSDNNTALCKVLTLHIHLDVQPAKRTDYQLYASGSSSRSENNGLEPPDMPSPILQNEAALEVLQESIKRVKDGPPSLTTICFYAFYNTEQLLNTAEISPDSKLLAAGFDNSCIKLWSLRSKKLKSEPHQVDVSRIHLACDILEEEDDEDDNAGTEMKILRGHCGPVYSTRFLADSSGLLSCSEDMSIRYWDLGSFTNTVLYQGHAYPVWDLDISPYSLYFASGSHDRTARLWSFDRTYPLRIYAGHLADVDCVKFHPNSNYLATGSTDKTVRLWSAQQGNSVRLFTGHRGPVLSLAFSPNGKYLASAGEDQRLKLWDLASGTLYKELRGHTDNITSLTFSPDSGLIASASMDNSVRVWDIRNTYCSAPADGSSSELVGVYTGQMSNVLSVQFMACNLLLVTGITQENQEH
UniProt Q96C24: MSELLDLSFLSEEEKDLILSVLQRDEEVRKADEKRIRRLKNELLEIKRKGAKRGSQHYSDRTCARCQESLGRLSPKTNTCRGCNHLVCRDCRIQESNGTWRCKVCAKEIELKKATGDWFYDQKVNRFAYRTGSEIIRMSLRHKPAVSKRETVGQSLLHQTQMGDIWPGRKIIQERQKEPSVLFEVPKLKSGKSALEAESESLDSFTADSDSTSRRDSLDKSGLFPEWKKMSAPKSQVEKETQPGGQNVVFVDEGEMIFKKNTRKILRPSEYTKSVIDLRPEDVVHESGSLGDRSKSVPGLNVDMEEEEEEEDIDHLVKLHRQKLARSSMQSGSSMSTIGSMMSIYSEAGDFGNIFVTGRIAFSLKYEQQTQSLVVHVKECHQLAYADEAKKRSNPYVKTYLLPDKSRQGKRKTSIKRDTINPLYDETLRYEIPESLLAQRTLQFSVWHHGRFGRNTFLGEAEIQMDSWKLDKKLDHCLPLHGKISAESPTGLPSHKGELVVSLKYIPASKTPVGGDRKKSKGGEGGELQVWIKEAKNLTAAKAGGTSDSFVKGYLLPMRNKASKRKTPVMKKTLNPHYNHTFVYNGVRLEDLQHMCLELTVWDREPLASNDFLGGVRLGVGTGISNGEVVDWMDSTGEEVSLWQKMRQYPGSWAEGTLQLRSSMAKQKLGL
UniProt Q9NRP7: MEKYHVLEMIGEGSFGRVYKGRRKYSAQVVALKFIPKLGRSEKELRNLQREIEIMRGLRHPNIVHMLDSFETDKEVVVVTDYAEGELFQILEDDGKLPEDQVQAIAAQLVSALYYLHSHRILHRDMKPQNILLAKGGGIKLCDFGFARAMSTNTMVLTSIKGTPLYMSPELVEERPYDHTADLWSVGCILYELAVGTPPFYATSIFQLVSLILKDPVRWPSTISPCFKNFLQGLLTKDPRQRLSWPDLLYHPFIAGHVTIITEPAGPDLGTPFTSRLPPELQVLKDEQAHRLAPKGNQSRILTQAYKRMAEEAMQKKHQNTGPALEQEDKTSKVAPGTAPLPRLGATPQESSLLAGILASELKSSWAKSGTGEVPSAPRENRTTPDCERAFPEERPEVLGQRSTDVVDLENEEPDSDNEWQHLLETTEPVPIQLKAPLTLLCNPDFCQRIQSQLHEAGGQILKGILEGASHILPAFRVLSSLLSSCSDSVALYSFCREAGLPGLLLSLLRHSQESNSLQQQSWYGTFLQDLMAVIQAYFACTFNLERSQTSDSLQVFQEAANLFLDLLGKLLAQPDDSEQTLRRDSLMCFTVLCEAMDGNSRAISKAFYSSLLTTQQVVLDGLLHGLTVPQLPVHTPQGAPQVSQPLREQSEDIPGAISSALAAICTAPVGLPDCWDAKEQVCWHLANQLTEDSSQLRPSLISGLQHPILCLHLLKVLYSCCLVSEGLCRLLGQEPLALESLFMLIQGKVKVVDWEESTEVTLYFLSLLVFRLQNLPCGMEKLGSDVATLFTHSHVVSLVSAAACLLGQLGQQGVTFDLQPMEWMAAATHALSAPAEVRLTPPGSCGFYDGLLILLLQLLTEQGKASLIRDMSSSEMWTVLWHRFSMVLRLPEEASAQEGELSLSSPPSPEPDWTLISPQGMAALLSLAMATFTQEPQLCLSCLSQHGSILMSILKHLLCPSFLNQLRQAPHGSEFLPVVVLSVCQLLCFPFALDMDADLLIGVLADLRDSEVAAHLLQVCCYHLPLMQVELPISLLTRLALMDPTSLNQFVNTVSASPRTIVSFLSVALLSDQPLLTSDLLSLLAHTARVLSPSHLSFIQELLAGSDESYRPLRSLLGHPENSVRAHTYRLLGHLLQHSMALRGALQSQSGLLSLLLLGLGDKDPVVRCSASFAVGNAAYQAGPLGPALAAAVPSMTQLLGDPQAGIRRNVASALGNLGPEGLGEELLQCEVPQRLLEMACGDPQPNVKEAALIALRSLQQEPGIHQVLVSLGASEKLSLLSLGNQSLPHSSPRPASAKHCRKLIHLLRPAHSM
UniProt Q15544, whole entry, looked up: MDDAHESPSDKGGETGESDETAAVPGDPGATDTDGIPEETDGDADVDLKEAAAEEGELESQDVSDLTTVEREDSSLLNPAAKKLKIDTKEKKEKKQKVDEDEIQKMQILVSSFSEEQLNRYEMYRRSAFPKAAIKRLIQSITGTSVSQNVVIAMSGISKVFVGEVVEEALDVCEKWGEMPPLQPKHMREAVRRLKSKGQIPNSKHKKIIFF
UniProt Q16514: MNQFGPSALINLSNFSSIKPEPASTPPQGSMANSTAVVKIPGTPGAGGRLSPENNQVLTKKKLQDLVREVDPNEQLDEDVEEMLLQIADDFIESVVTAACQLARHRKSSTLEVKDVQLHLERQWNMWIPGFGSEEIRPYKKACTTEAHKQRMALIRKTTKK
UniProt Q01995: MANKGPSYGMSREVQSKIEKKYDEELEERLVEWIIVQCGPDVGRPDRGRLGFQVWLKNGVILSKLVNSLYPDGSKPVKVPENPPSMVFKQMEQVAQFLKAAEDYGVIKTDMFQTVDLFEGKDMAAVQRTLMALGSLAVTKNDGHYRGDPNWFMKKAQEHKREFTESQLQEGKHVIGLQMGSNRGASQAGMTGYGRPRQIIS
UniProt Q8N300: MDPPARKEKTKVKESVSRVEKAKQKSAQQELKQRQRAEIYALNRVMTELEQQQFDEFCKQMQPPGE
UniProt Q9UMX1: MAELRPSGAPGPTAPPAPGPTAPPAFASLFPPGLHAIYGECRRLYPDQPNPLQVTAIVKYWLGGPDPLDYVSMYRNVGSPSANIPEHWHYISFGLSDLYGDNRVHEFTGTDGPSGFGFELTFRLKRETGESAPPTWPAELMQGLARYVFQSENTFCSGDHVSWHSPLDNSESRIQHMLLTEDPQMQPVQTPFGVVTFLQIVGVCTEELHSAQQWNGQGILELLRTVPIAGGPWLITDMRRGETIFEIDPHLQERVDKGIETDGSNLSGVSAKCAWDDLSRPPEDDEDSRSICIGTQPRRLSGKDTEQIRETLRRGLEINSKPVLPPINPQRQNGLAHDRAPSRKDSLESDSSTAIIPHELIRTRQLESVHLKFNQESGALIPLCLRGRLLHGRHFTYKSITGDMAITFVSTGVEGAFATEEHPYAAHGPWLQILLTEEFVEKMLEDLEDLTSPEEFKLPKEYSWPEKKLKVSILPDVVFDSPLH

The other results are listed elsewhere or left out.

Compound in this experiment: CCN(CCCOc1ccc2c(Nc3cc(CC(=O)Nc4cccc(F)c4)[nH]n3)ncnc2c1)CCOP(=O)(O)O [barasertib]
In words: log2 fold change, soluble protein after heating vs DMSO (PISA); higher = thermal stabilisation; K562 cells, 10 uM, 30 min; active = over 0.2 and 3.5 SD of the protein, either way, in both replicates (recomputed). The method in brief: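 K562 cells at 2×10^6 cells/mL were treated for 30 min with 10 μM compound, and aliquots were heated for 3 min over 48°C-58°C before pooling. Extraction used PBS with 0.5% NP-40 at 4°C, and soluble protein was the supernatant after 21,000xg for 90 min, measured by TMTpro 16plex LC-MS/MS with channel sums equalised. Thermal stability values, relative to control samples and from duplicates, are log2 fold changes.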
On to SULT1E1 (UniProt P49888), for which the log2 fold change was inactive: 0.037.

With STS (UniProt P08842), the log2 fold change was inactive: 0.159.

For the target STRIP2 (UniProt Q9ULQ0), the log2 fold change was inactive: 0.09.

As to TAF5L (UniProt O75529), the log2 fold change is inactive: 0.086.

For SYTL4 (UniProt Q96C24), the log2 fold change was inactive: 0.045.

On to TACC2 (UniProt O95359), for which the log2 fold change was inactive: 0.012.

STK36 (UniProt Q9NRP7): the log2 fold change is inactive: 0.078.

Regarding TAF11 (UniProt Q15544), the log2 fold change was inactive: -0.041.

As to TAF12 (UniProt Q16514), the log2 fold change was inactive: 0.035.

For the target TAGLN (UniProt Q01995), the log2 fold change is inactive: 0.042.

SVBP (UniProt Q8N300): the log2 fold change was inactive: -0.173.

As to SUFU (UniProt Q9UMX1), the log2 fold change was inactive: -0.072.
